Test results published in patent US20190142993A1, “ULTRA-THIN, HIGH STRENGTH, DRUG-LOADED SUTURES AND COATINGS THEREOF” (The Johns Hopkins University, priority 2016, published 2019).
For at least one compound, name, drawing or mass did not settle the structure.

Tested on: Staphylococcus Aureus
Assay: 2-day bacterial infection model in rat cornea with suture implantation
Type: in vivo, Staphylococcus Aureus in Sprague-Dawley rats
Details: 48 hr

C[C@H]1COc2c(N3CCN(C)CC3)c(F)cc3c(=O)c(C(=O)O)cn1c23 [Levo, levofloxacin]
bacterial load and infection (nylon suture plus a single drop of Levo): significantly decreased the bacterial load in comparison to a nylon suture alone (p<0.05), but was not sufficient to prevent infection | H&E histology of cornea (nylon suture plus a single post-operative dose of Levo): Cells were also concentrated around nylon sutures | culture of bacterial swabs on agar plates (nylon suture plus a single topical dose of Levo): presence of infection | H&E histology of cornea (nylon suture plus three daily doses of Levo): no sign of infection or inflammation | amount of bacteria compared with healthy control cornea (nylon suture plus three daily drops of Levo): not significantly different
